## Screening data

The results are deposited in PubChem (AID1159506; NCATS, 2015).

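Luminescence from an EWS-FLI1 target-promoter (NR0B1) reporter, set against a CMV-promoter reporter, two days after silencing single genes in TC32 Ewing sarcoma cells. Each siRNA was applied at 20 nM. A z-score of the log NR0B1-over-CMV signal, less the median of siRNAs with the same seed; more negative means a stronger specific loss of the NR0B1 reporter.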

The strongest results of the screen are mostly left out here. Sequences are the guide (antisense) strand, without overhang.

Sequence | target gene | seed-corrected z-score
UUCUUCGAAAAGACUAUUC | KIAA1841 | 0.01243
UCUAGGGUCAGGUAUUUUC | TPP1 | -0.3177
ACAAGGGUAACAUAUAGCC | SVOPL | 0.8562
UGACCUUUGAGCGGAAUGC | GPR171 | 0.3464
UUGUCUACCCUGUAUAGCC | PXDNL | 1.229
AAAGAGGGCAUGUGCAUGC | TNFRSF13C | -0.3118
UUCUCGAUCCAUGUUGAGC | CDH6 | -0.482
UCAUGUACGCUAAACAGCG | PCDHGA5 | 0.7538
ACUGGAACUUGUCCUCACC | ANKRD9 | 0.3243
UAUAGGUAAAGUAGGAGAC | PCDHGA10 | -0.09091
UGCAGGUACAGUAAUCUGG | WNT8A | 1.003
UCGGUCUACUUUAUGCUCC | ABCA10 | 0.8285
UGUCGAAUGAGACCUGAGC | ZSCAN9 | 0.0866
UAAACUUAGAGAGAGGUGA | GHRL | -0.3946
UGGAUGAUAACGAGAAUCU | OR4B1 | 0.4209
UCAUUGACAUCGGUGAGAG | CDH12 | -0.2649
UCAGGUUGAAGACAUUGUG | AMIGO1 | -0.1204
UCUUUCAACAUGUCGAUGU | LIN52 | 0.1135
UCCAUUUAUUUGGAGCUGG | HIST1H2BH | 0.5881
UCAGGUUCCCUACUGAUCU | SCNM1 | -0.2624
UGCAGGUACAUGAGCUUCC | OBP2B | 0.34
UGAUCUAUAUGUCUGGUUG | SETDB1 | -1.659
UCAGUUUGGACAUCAAGUC | PHF19 | 0.335
AAUGAUAGCAGAGCCGUUG | ANKAR | -0.7485
UGACGGUCAUGAUGUAUGC | DUSP22 | -1.111
UGAUGGUGCAGGUUGCAGG | MXRA8 | 0.4022
UGGCUUAGGAGCUUGAAGU | HBA1 | 0.7372
UUAAAUUCAUCGUAGGUCA | APOBEC3A | 0.4131
AAAUAUGCCUUCAAUCUGC | LINC00944 | 0.5392
UCGGAAACACUUCCUAUCU | FAM86C2P | 0.311
UCAGCUUAGUACGUAGUUC | CCDC18 | 0.7694
UAUCGUGUCGGCACACUGG | SCGB1B2P | 0.5961
AAAGCUGAGAUCAUGACUC | KRTAP9-3 | 0.6237
UGAGGAUCAAGAAGUCUAG | BAMBI | -0.4174
UGAGAACUUGGGCAUUUCC | C14orf177 | -0.02256
UCCCGAAUCAACUAAGUAG | MCCC2 | -0.0942
UAACUAAUAGAUACAUGCC | GAB1 | 0.03391
UUUGUCGCUAGAUUGUACC | SUCLG2 | -0.3809
UUUAUGCCCAUCAGCAUGU | OLFML1 | -0.3631
UGGGUUAUCAUGAUUUUCC | MYEOV | -0.09247
UUUUCGUAUCUGACUAACC | PI4K2B | 0.6307
UUUGGGUUCUGCUUCUACA | OSBPL1A | 0.624
UAGAGGAUCUCGCUUGUGC | SLC10A4 | 0.4013
UCUAUUCGAAGAAGUAGGG | NUDCD1 | 0.6506
AAACUCAAAAAUAUCUUCU | NCOR1P1 | -0.2656
UCUGGUCAGACAGCGACAG | ESRRA | -0.6773
UUAUGUUUCGUAAGGGUUG | ZNF726P1 | -1.49
UUUUCUUGCAAUGAGAUUG | PPP6R2 | 0.7386
UUCGCUUCCAACAGUCUCC | OPTN | 0.003114
AUGUUUAGCACUGCGAUGC | DGKA | -0.481
AGAACUACUAGGAAGAUAG | CDKL3 | 0.446
UUUGUUGCAAUCCACCUUC | GPX6 | -0.1027
ACAUCAACCGUCAGGAUGC | GALR2 | -0.3556
UGUAGAUCCAGCACAAGGA | PCDHA9 | 0.4131
UUAGCUUGAAGAUAGGUAG | SNX12 | 1.508
UCAAAGACCAGGUAGAACU | HIPK4 | -0.226
UGUGAAUGAAUGACAGUCC | OR51B4 | -0.2286

Repeated from the top, 6 entries:

UUCUUCGAAAAGACUAUUC against KIAA1841 read seed-corrected z-score 0.01243.
UCUAGGGUCAGGUAUUUUC against TPP1 read seed-corrected z-score -0.3177.
ACAAGGGUAACAUAUAGCC against SVOPL read seed-corrected z-score 0.8562.
UGACCUUUGAGCGGAAUGC against GPR171 read seed-corrected z-score 0.3464.
UUGUCUACCCUGUAUAGCC against PXDNL read seed-corrected z-score 1.229.
AAAGAGGGCAUGUGCAUGC against TNFRSF13C read seed-corrected z-score -0.3118.